Assay results as given in the supplement of paper PMC9015667.
Structures can show the parent of a compound that is named as a salt. Some of the results follow. Most values come without repeats; read them as rough.

Tested on: M249R (matched melanoma line resistant to BRAF inhibitors)
Test: reduction in cell viability relative to untreated/vehicle; higher = more growth inhibition
Settings: 200 nM; 72 h

Compound	reduction in cell viability
CS(=O)(=O)N(Cc1ccco1)C[C@@H](O)Cn1c2ccccc2c2ccccc21	11.7%
Cn1cc(-c2ccncc2)c(-c2ccc(OCc3ccc4ccccc4n3)cc2)n1	< 0%
CC(C)CN(C[C@@H](O)[C@H](Cc1ccccc1)NC(=O)O[C@H]1CCOC1)S(=O)(=O)c1ccc(N)cc1 [Amprenavir]	< 0%
CNC(=O)c1ccc2cc([C@@]3(O)CCn4cncc43)ccc2c1 [Orteronel]	< 0%
CCN(CC)CCCCNc1ncc2c(n1)N(C)C(=O)N(c1c(Cl)c(OC)cc(OC)c1Cl)C2	< 0%
CCOC(=O)N1c2ccc(C(F)(F)F)cc2[C@@H](N(Cc2cc(C(F)(F)F)cc(C(F)(F)F)c2)C(=O)OC)C[C@H]1CC [Torcetrapib]	< 0%
CC(C)(C)c1[nH]cnc1/C=c1\[nH]c(=O)/c(=C/c2ccccc2)[nH]c1=O [Plinabulin]	45.4%
COc1cccc2c1C(=O)c1c(O)c3c(c(O)c1C2=O)C[C@@](O)(C(=O)CO)C[C@@H]3O[C@H]1C[C@H](N)[C@H](O[C@@H]2CCCCO2)[C@H](C)O1 [Pirarubicin]	< 0%
COC(c1ccccc1)(c1ccccc1)[C@H](Oc1nc(C)cc(C)n1)C(=O)O [Ambrisentan]	8.58%

Tested on: UACC62P (parental melanoma line)
Test: as above
Settings: 200 nM; 72 h

Compound	reduction in cell viability
Oc1cc2c(cc1O)[C@@H]1c3ccc(O)c(O)c3OC[C@]1(O)C2 [Hematoxylin]	< 0%
C[C@H]1[C@H](C)CC[C@]2(C(=O)O)CC[C@]3(C)C(=CC[C@@H]4[C@@]5(C)CC[C@H](O)C(C)(C)[C@@H]5CC[C@]43C)[C@H]12 [Ursolic acid]	< 0%
C[C@@H](O)[C@H]1C(=O)N2C(C(=O)OCOC(=O)C(C)(C)C)=C(SC3CN(C4=NCCS4)C3)[C@H](C)[C@H]12 [Tebipenem pivoxil]	< 0%
O=C(Nc1nnc(-c2ccco2)o1)c1cc(-c2ccccc2)nc2ccccc12	< 0%
CCOC(=O)/C=C/[C@H](C[C@@H]1CCNC1=O)NC(=O)[C@@H](CC(=O)[C@@H](NC(=O)c1cc(C)on1)C(C)C)Cc1ccc(F)cc1 [Rupintrivir]	< 0%
CC(C)CC(=O)Nc1n[nH]c2c1CN(C(=O)C1CCN(C)CC1)C2(C)C	46.1%
Cc1nc(-c2ccc(OCC(C)C)c(C#N)c2)sc1C(=O)O [Febuxostat]	< 0%
O=C(NC1CC1)c1cccc(-c2ccc3c(NC(=O)C4CC4)n[nH]c3c2)c1	14.1%
COC(=O)C1=C(C)NC(C)=C(C(=O)OCCN2CCN(C(c3ccccc3)c3ccccc3)CC2)C1c1cccc([N+](=O)[O-])c1 (configuration not stated) [Manidipine dihydrochloride]	12%
O=C1CCC(N2C(=O)c3ccccc3C2=O)C(=O)N1 (configuration not stated) [Thalidomide]	< 0%
CC1(C)C(=O)N(CCN2CCC(C(=O)c3ccc(F)cc3)CC2)c2ccccc21	< 0%
COC1=CC(c2cc3ccccc3[nH]2)=N/C1=C\c1[nH]c(C)cc1C [Obatoclax]	40.9%
C[C@H]1c2cccc(O)c2C(=O)C2=C(O)[C@]3(O)C(=O)C(C(N)=O)=C(O)[C@@H](N(C)C)[C@@H]3[C@@H](O)[C@@H]21 [Doxycycline]	< 0%
Cc1cn([C@H]2O[C@@H](CO)[C@H](O)[C@H]2F)c(=O)[nH]c1=O [Clevudine]	3.64%
Cc1nc(Nc2ncc(C(=O)Nc3c(C)cccc3Cl)s2)cc(N2CCN(CCO)CC2)n1 [Dasatinib]	< 0%
CC[N+](CC)(CC)CCOc1cccc(OCC[N+](CC)(CC)CC)c1OCC[N+](CC)(CC)CC [Gallamine triethiodide]	26.6%
Fc1ccc(C(c2ccc(F)cc2)N2CCN(C/C=C/c3ccccc3)CC2)cc1 [Flunarizine]	0.69%
Cc1ccc(S(=O)(=O)OCC(=O)Nc2ccc(C(=O)O)c(O)c2)cc1	< 0%
Clc1ccc(C2(c3ccc(-c4cn[nH]c4)cc3)CCNCC2)cc1	< 0%
CC(=O)O[C@@H]1[C@@H](OC(C)=O)[C@@H](O)[C@H](Oc2c(-c3ccc(O)cc3)oc3cc(O)cc(O)c3c2=O)O[C@H]1C	< 0%
CC(C)(O)CC(=O)NCCn1ccc2ncnc(Nc3ccc(Oc4cccc(C(F)(F)F)c4)c(Cl)c3)c21	< 0%
NS(=O)(=O)c1cc2c(cc1Cl)NCNS2(=O)=O [Hydrochlorothiazide]	< 0%
C[C@@H]1COC(Nc2ccc3ncnc(Nc4ccc(OCc5nccs5)c(Cl)c4)c3c2)=N1 [Varlitinib tosylate]	< 0%

Single values from the results shown:
`C[C@H]1c2cccc(O)c2C(=O)C2=C(O)[C@]3(O)C(=O)C(C(N)=O)=C(O)[C@@H](N(C)C)[C@@H]3[C@@H](O)[C@@H]21` [Doxycycline] – reduction in cell viability: < 0%
`COC1=CC(c2cc3ccccc3[nH]2)=N/C1=C\c1[nH]c(C)cc1C` [Obatoclax] – reduction in cell viability: 40.9%
